Reference: patent publication US20220218690A1, “MONTELUKAST SALTS AND PHARMACEUTICAL COMPOSITIONS CONTAINING THE SAME” (GENETIC S.P.A., priority 2019, published 2022)
Where two headings read alike, the source gives them in different places.

Legend:
[1] = system: Paw mouse edema; conditions: FIG. 13
[2] = system: IgE; conditions: 0.75 mg/Kg; FIG. 18-A
Description: (§1) Mouse model of asthma. Female BALB/c mice (8 weeks: Charles River) were sensitized through subcutaneous administration of Ovalbumin (100 μg dissolved in 400 μl of AlOH3 13.5 mg/ml) on days 0 and 8, on the twenty-first day the mice were stimulated by aerosolic administration of Ovalbumin (3% for twenty minutes). The mice were sacrificed after 48 hours and the bronchi used for the evaluation of bronchial reactivity at carbachol and salbutamol. The drugs were administered intraperitoneally prior to each exposure to the allergen. […] Pulmonary tissues were harvested and used for dosage of cytokines such as IL-4 and IL-13. In addition plasma levels of IgE were measured.

[3] = system: salbutamol-induced bronchial relaxation
Description: as §1

[4] = system: bronchial hyperreactivity
Description: as §1

CC(C)(O)c1ccccc1CCC(SCC1(CC(=O)O)CC1)c1cccc(C=Cc2ccc3ccc(Cl)cc3n2)c1.COc1ccc(CC(C)NCC(O)c2ccc(O)c(NC=O)c2)cc1 (stereo not shown) [Montelukast formoterol salt, N-(2-(3-formamido-4-hydroxyphenyl)-2-hydroxyethyl)-1-(4-methoxy-phenyl)propan-2-aminium-2-(1-(((1-(3-(2-(7-chloroquinolin-2-yl)vinyl)-phenyl)-3-(2-(2-hydroxypropan-2-yl)phenyl)propyl)thio-)methyl)cyclopropyl)acetate]
anti-inflammatory effect ([1]; 0.3 mg/kg intraperitoneal, 30 minutes before intraplantar carrageenin): significantly increased
p vs vehicle, anti-inflammatory effect [1]: < 0.001
IgE plasma levels [2]: unaffected
control of the response to salbutamol ([3]; 0.75 mg/Kg among 0.3, 0.75, 1.5 mg/kg, FIG. 15): most effective in controlling the response to salbutamol
p vs OVA, preserving salbutamol-induced bronchial relaxation ([3]; 0.75 mg/Kg, dose series (FIG. 15)): < 0.001
p vs Formoterol, preserving salbutamol-induced bronchial relaxation ([3]; salt 0.75 mg/kg vs Formoterol 0.3 mg/kg, FIG. 17): < 0.001
p vs Montelukast, preserving salbutamol-induced bronchial relaxation ([3]; salt 0.75 mg/kg vs Montelukast 0.3 mg/kg, FIG. 17): < 0.001
reversal of Ovalbumin-induced reduction of salbutamol-induced relaxation ([3]; salt 0.75 mg/kg, FIG. 17): efficiently reverses this effect
p vs OVA, preserving salbutamol-induced bronchial relaxation ([3]; salt 0.75 mg/kg, comparison series FIG. 17): < 0.001
bronchial reactivity (response to carbachol) ([4]; 0.75 mg/Kg intraperitoneal): reports the bronchial reactivity to basal values
p vs OVA, preventing bronchial hyperreactivity ([4]; 0.3, 0.75 and 1.5 mg/Kg, FIG. 14): < 0.001
control of bronchial hyperreactivity ([4]; 0.3, 0.75 and 1.5 mg/kg intraperitoneal prior to each allergen exposure, FIG. 14): good control of bronchial hyperreactivity, which is a dose-related effect
p 0.75 mg/Kg vs 0.3 mg/Kg, preventing bronchial hyperreactivity ([4]; FIG. 14): < 0.001
p 0.75 mg/Kg vs 1.5 mg/Kg, preventing bronchial hyperreactivity ([4]; FIG. 14): < 0.05
best dose ([4]; doses 0.3, 0.75 and 1.5 mg/kg tested): 0.75 mg/kg
p vs Formoterol, preventing bronchial hyperreactivity ([4]; salt 0.75 mg/kg vs Formoterol 0.3 mg/kg (FIG. 16)): < 0.05
